Molecules are shown by their SMILES. Where a name gives a salt, the structure may show the parent alone. Some of the results follow. Repeats in this data set agree poorly, so a single value says little.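 Human embryonic kidney cells were transiently transfected with a plasmid bearing a Renilla luciferase gene under the HSV-TK promoter. This first-round screen tests roughly ten thousand compounds for ones that increase reporter output.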

The test system of this assay is HEK 293FT. Put plainly: log relative Renilla luciferase luminescence (reporter expression vs reference, reference not stated) (log (base not stated)); higher = higher recombinant reporter expression. To be noted: 10 µM; time after transfection 48 h.
Regarding `CC(C)NCC(O)c1ccc(NS(C)(=O)=O)cc1` (centres undefined) [Sotalol hydrochloride], the log was -0.0605.

Consider `CC(=O)N1CCN(c2ccc(OCC3COC(Cn4ccnc4)(c4ccc(Cl)cc4Cl)O3)cc2)CC1` (centres undefined) [Ketoconazole], for which the log was -0.363.

In the case of `CCN(CC)CCCC(C)Nc1c2ccc(Cl)cc2nc2ccc(OC)cc12` (centres undefined) [Quinacrine dihydrochloride dihydrate], the log is 0.212.

Take `CCCCCCCCCCCCCCCC[N+](C)(C)CCN(Cc1ccc(OC)cc1)c1ncccn1` [Thonzonium bromide]: the log is -0.995.

As to `CNC(=C[N+](=O)[O-])NCCSCc1ccc(CN(C)C)o1` [Ranitidine hydrochloride], the log stood at 0.229.

Regarding `COC(=O)[C@H]1[C@H]2C[C@@H]3c4[nH]c5cc(OC)ccc5c4CCN3C[C@H]2C[C@@H](OC(=O)c2cc(OC)c(OC)c(OC)c2)[C@@H]1OC` [Reserpine], the log is 0.0032.

Regarding `CCOC(=O)Nc1ccc2c(c1)N(C(=O)CCN1CCOCC1)c1ccccc1S2` [Moricizine hydrochloride], the log came out at 0.0377.

Take `CCc1cc(C(N)=S)ccn1` [Ethionamide]: the log is 0.0424.

With `CCC(=O)[C@@]1(C)[C@H](C)C[C@H]2[C@@H]3CCC4=CC(=O)C=C[C@]4(C)[C@H]3[C@@H](O)C[C@@]21C` [Rimexolone], the log is -0.615.

With `CN(N=O)C(=O)N[C@@H](C=O)[C@@H](O)[C@H](O)[C@H](O)CO` [Streptozotocin], the log was -0.0449.

Consider `O=C(N/N=C/c1ccc([N+](=O)[O-])o1)c1ccc(O)cc1` [Nifuroxazide], for which the log is -1.12.

`CN1CCN(C(c2ccccc2)c2ccc(Cl)cc2)CC1` (centres undefined) [Chlorcyclizine hydrochloride]: the log was determined as 0.232.

In the case of `O=C1C=CC(=O)c2c1ccc1c2ccc2ccccc21` [Chrysene-1,4-quinone], the log was -0.172.

For the molecule `CC(C)(O/N=C(\C(=O)N[C@@H]1C(=O)N2C(C(=O)[O-])=C(C[n+]3ccccc3)CS[C@H]12)c1csc(N)n1)C(=O)O` [Ceftazidime pentahydrate], the log is -0.103.

For `Cc1ccc(/C(=C\CN2CCCC2)c2ccccn2)cc1` [Triprolidine hydrochloride], the log came to 0.0581.

Regarding `Cc1c(Cl)cccc1Nc1ncccc1C(=O)O` [Clonixin Lysinate], the log was 0.102.

For `C[C@H]1[C@H](NC(=O)/C(=N\OC(C)(C)C(=O)O)c2csc(N)n2)C(=O)N1S(=O)(=O)O` [Aztreonam], the log was 0.107.

Take `CNCCC=C1c2ccccc2CCc2ccccc21` [Nortriptyline hydrochloride]: the log is -0.0265.

As to `CCc1c2c(nc3ccc(OC(=O)N4CCC(N5CCCCC5)CC4)cc13)-c1cc3c(c(=O)n1C2)COC(=O)[C@]3(O)CC` [Irinotecan Hydrochloride], the log came out at 0.0364.

`CCn1cc(C(=O)O)c(=O)c2cc(F)c(N3CCNC(C)C3)c(F)c21` (centres undefined) [Lomefloxacin hydrochloride]: the log is 0.171.

As for `COc1cc(C)nc(-n2nc(C)cc2OC)n1` [Epirizole], the log was 0.117.

As to `CS(=O)(=O)Nc1ccc([N+](=O)[O-])cc1Oc1ccccc1` [Nimesulide], the log was -0.167.

For the molecule `CNC(=C[N+](=O)[O-])NCCSCc1csc(CN(C)C)n1` [Nizatidine], the log is 0.121.

Consider `C[C@]12C=CC(=O)C=C1CC[C@@H]1[C@@H]2C(=O)C[C@@]2(C)[C@H]1CC[C@]2(O)C(=O)CO` [Prednisone], for which the log came to 0.0806.

As to `C[C@@H]1CN(c2c(F)c(N)c3c(=O)c(C(=O)O)cn(C4CC4)c3c2F)C[C@H](C)N1` [Sparfloxacin], the log is 0.0842.

As for `CCn1cc(C(=O)O)c(=O)c2cc(F)c(N3CCN(C)CC3)cc21` [Pefloxacine], the log is 0.148.

As to `CC[C@]12CCCN3CCc4c(n(c5ccccc45)C(=O)C1)[C@@H]32` [Eburnamonine (-)], the log is -0.00193.

`CC(=O)Oc1cc(C(C)C)c(OCCN(C)C)cc1C` [Moxisylyte hydrochoride]: the log amounted to 0.0713.

Turning to `CC(c1cc2ccccc2s1)N(O)C(N)=O` (centres undefined) [Zileuton], the log was -0.114.

On to `COc1cc(C)c(/C=C/C(C)=C/C=C/C(C)=C/C(=O)O)c(C)c1C` [Acitretin], for which the log was found to be 0.0484.

Turning to `CN(C)CCC=C1c2ccccc2C=Cc2ccccc21` [Cyclobenzaprine hydrochloride], the log was -0.0505.

With `NS(=O)(=O)c1cc2c(cc1Cl)NCNS2(=O)=O` [Hydrochlorothiazide], the log was -0.138.

In the case of `C[N+]1(C)CCC(=C(c2ccccc2)c2ccccc2)CC1` [Diphemanil methylsulfate], the log amounted to 0.105.

For the molecule `CNNCc1ccc(C(=O)NC(C)C)cc1` [Procarbazine hydrochloride], the log stood at 0.0808.

Turning to `O=c1[nH]c(=O)n([C@H]2C[C@H](O)[C@@H](CO)O2)cc1F` [Floxuridine], the log is -0.819.

As for `COc1cc2nc(N3CCN(C(=O)C4CCCO4)CC3)nc(N)c2cc1OC` (centres undefined) [Terazosin hydrochloride], the log is -0.0145.

For `Nc1ccc(S(=O)(=O)Nc2ccc(Cl)nn2)cc1` [Sulfachloropyridazine], the log is 0.129.

For the molecule `CN(C)CCCOc1nn(Cc2ccccc2)c2ccccc12` [Benzydamine hydrochloride], the log was 0.137.

On to `C#C[C@]1(O)CC[C@H]2[C@@H]3[C@H](C)CC4=C(CCC(=O)C4)[C@H]3CC[C@@]21C` [Tibolone], for which the log is -0.876.

Turning to `CC(=O)OCC(=O)[C@@]1(O)CC[C@H]2[C@@H]3CCC4=CC(=O)C=C[C@]4(C)[C@@]3(F)[C@@H](O)C[C@@]21C` [Isoflupredone acetate], the log came to 0.0896.

For `CO[C@@H]1[C@@H](OC(N)=O)[C@@H](O)[C@H](Oc2ccc3c(O)c(NC(=O)c4ccc(O)c(CC=C(C)C)c4)c(=O)oc3c2C)OC1(C)C` [Novobiocin sodium salt], the log is -0.144.

Take `CCN1CCN(C(=O)N[C@@H](C(=O)N[C@@H]2C(=O)N3[C@@H]2SC(C)(C)[C@@H]3C(=O)O)c2ccccc2)C(=O)C1=O` [Piperacillin sodium salt]: the log was -0.065.

Consider `CCCC(=O)Nc1ncnc2c1ncn2[C@@H]1O[C@@H]2COP(=O)(O)O[C@H]2[C@H]1OC(=O)CCC` [Bucladesine sodium salt], for which the log was -0.162.

With `CN(C)CCC[C@@]1(c2ccc(F)cc2)OCc2cc(C#N)ccc21` [Escitalopram], the log is -0.121.

On to `CN1CCCC(n2nc(Cc3ccc(Cl)cc3)c3ccccc3c2=O)CC1` (centres undefined) [Azelastine HCl], for which the log is -0.00359.

Take `CN1CCCCC1CCN1c2ccccc2Sc2ccc([S+](C)[O-])cc21` (centres undefined) [Mesoridazine besylate]: the log was determined as 0.107.

As to `NC(=O)N/N=C/c1ccc([N+](=O)[O-])o1` [Nitrofural], the log was -0.00375.

For the molecule `CC(=O)Oc1cccc2c1C(=O)c1c(OC(C)=O)cc(C(=O)O)cc1C2=O` [Diacerein], the log is -0.597.

Regarding `C=C1C[C@H]2[C@@H]3C=C(C)C4=CC(=O)CC[C@]4(C)[C@H]3CC[C@]2(C)[C@@]1(OC(C)=O)C(C)=O` [Melengestrol acetate], the log was -1.22.

For `OCCN1CCN(CCCN2c3ccccc3Sc3ccc(Cl)cc32)CC1` [Perphenazine], the log amounted to 0.0781.

In the case of `OC[C@H]1O[C@@H](Oc2ccc(O)cc2)[C@H](O)[C@@H](O)[C@@H]1O` [Arbutin], the log amounted to 0.0444.

For the molecule `Nc1ccc(S(=O)(=O)c2ccc(N)cc2)cc1` [Dapsone], the log was 0.178.

On to `N=C(N)NCC1COC2(CCCCC2)O1` (centres undefined) [Guanadrel sulfate], for which the log was -0.0734.

Turning to `CC1(C)OC(=O)NC1=O` [Dimethadione], the log was -0.167.

As to `Nc1ccc(C(=O)NCC(=O)O)cc1` [Aminohippuric acid], the log was -0.0105.

For `COc1ccc(NS(=O)(=O)c2ccc(N)cc2)nn1` [Sulfamethoxypyridazine], the log is -0.146.

For `CCC[C@H](N[C@@H](C)C(=O)N1[C@H](C(=O)O)C[C@@H]2CCCC[C@@H]21)C(=O)OCC` [Perindopril], the log amounted to 0.0346.

As to `Cn1nnnc1SCC1=C(C(=O)O)N2C(=O)[C@@H](NC(=O)[C@H](O)c3ccccc3)[C@H]2SC1` [Cefamandole sodium salt], the log was -0.0818.

On to `O=C(CCCN1CC=C(n2c(=O)[nH]c3ccccc32)CC1)c1ccc(F)cc1` [Droperidol], for which the log is -0.00861.

Regarding `CCN(CC)CCNC(=O)c1cc(S(C)(=O)=O)ccc1OC` [Tiapride hydrochloride], the log stood at 0.105.

On to `C#CCN(C)Cc1ccccc1` [Pargyline hydrochloride], for which the log worked out at 0.0407.

In the case of `CCn1cc(C(=O)O)c(=O)c2ccc(C)nc21` [Nalidixic acid sodium salt], the log worked out at 0.139.

For the molecule `COc1ccc2cc(CCC(C)=O)ccc2c1` [Nabumetone], the log came to 0.117.

`CC(=O)N[C@@H](CC(=O)N[C@@H](CCC(=O)O)C(=O)O)C(=O)O` [Spaglumic acid]: the log is 0.113.

Turning to `Cc1ccc(S(=O)(=O)NC(=O)NN2CC3CCCC3C2)cc1` (centres undefined) [Gliclazide], the log was 0.145.

`CCn1cc(C(=O)O)c(=O)c2cnc(N3CCNCC3)nc21` [Pipemidic acid]: the log stood at 0.0695.

On to `COc1cc2nc(N3CCN(C(=O)c4ccco4)CC3)nc(N)c2cc1OC` [Prazosin hydrochloride], for which the log worked out at 0.0221.

Take `COc1nc(C)nc(Cl)c1NC1=NCCN1` [Moxonidine]: the log is -0.0785.

Take `COc1ccc2[nH]cc(CCNC(C)=O)c2c1` [Melatonin]: the log is 0.0484.

Take `NC[C@H]1O[C@H](O[C@H]2[C@H](O[C@@H]3O[C@H](CO)[C@@H](O)[C@H]3O)[C@@H](O)[C@H](N)C[C@@H]2N)[C@H](N)[C@@H](O)[C@@H]1O` [Ribostamycin sulfate salt]: the log was -0.181.

`COc1ccc(C(=O)NCc2cccnc2)cc1C(=O)NCc1cccnc1` [Picotamide monohydrate]: the log amounted to 0.00465.

In the case of `CCN(Cc1ccncc1)C(=O)C(CO)c1ccccc1` (centres undefined) [Tropicamide], the log came to 0.0655.

As for `CN(C)CCOC1=Cc2ccccc2Sc2ccc(Cl)cc21` [Zotepine], the log was -0.54.

With `O=C(NCCNCC(O)COc1ccc(O)cc1)N1CCOCC1` (centres undefined) [Xamoterol hemifumarate], the log is 0.086.

These data come from the supplement of paper PMC7024190.
